Data published in paper PMC8278108.
No constants are given. Whether binding was seen depends on the method and setting. Binding seen in cells or lysates may run through a third protein. Some entries that bind do so weakly or less than the wild type.

Amino acid sequences for entries named in this document (tags omitted).
UniProt O43474: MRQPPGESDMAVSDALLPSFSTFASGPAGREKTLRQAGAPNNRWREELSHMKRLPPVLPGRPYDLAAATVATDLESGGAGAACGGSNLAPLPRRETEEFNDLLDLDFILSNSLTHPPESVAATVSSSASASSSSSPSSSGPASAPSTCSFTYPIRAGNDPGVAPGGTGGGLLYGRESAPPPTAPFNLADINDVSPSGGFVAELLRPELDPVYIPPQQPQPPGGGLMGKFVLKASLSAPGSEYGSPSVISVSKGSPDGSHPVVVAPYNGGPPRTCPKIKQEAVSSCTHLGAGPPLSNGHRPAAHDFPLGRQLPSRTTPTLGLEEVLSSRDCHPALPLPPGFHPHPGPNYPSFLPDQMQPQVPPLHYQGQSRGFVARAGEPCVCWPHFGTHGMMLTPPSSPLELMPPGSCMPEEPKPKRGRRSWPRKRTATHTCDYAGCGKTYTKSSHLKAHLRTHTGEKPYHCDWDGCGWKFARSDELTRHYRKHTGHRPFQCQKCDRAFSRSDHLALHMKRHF

Biological target: Flag-tagged KLF4 (Krüppel-like factor 4), full length (human) (UniProt O43474)
Assay: co-IP; HEK293 cells co-transfected with Flag-KLF4 and Myc-USP11 (in Figure 2B also HA-Ub); Nonidet P-40 lysate; IP with anti-Flag beads, blot with anti-Myc

binding: binds
B1: Catalytically inactive USP11 (C318S) (enzyme, UniProt P51784 1-963)
chain: MAVAPRLFGGLCFRFRDQNPEVAVEGRLPISHSCVGCRRERTAMATVAANPAAAAAAVAAAAAVTEDREPQHEELPGLDSQWRQIENGESGRERPLRAGESWFLVEKHWYKQWEAYVQGGDQDSSTFPGCINNATLFQDEINWRLKEGLVEGEDYVLLPAAAWHYLVSWYGLEHGQPPIERKVIELPNIQKVEVYPVELLLVRHNDLGKSHTVQFSHTDSIGLVLRTARERFLVEPQEDTRLWAKNSEGSLDRLYDTHITVLDAALETGQLIIMETRKKDGTWPSAQLHVMNNNMSEEDEDFKGQPGICGLTNLGNTSFMNSALQCLSNVPQLTEYFLNNCYLEELNFRNPLGMKGEIAEAYADLVKQAWSGHHRSIVPHVFKNKVGHFASQFLGYQQHDSQELLSFLLDGLHEDLNRVKKKEYVELCDAAGRPDQEVAQEAWQNHKRRNDSVIVDTFHGLFKSTLVCPDCGNVSVTFDPFCYLSVPLPISHKRVLEVFFIPMDPRRKPEQHRLVVPKKGKISDLCVALSKHTGISPERMMVADVFSHRFYKLYQLEEPLSSILDRDDIFVYEVSGRIEAIEGSREDIVVPVYLRERTPARDYNNSYYGLMLFGHPLLVSVPRDRFTWEGLYNVLMYRLSRYVTKPNSDDEDDGDEKEDDEEDKDDVPGPSTGGSLRDPEPEQAGPSSGVTNRCPFLLDNCLGTSQWPPRRRRKQLFTLQTVNSNGTSDRTTSPEEVHAQPYIAIDWEPEMKKRYYDEVEAEGYVKHDCVGYVMKKAPVRLQECIELFTTVETLEKENPWYCPSCKQHQLATKKLDLWMLPEILIIHLKRFSYTKFSREKLDTLVEFPIRDLDFSEFVIQPQNESNPELYKYDLIAVSNHYGGMRDGHYTTFACNKDSGQWHYFDDNSVSPVNENQIESKAAYVLFYQRQDVARRLLSPAGSSGAPASPACSSPPSSEFMDVN
